US7696313B2 (priority 2000, dated 2010)

Columns and labels:
[1] = general procedure: Fmoc solid-phase peptide synthesis; Wang's alkoxy resin (0.60 mmol/μm loading); HBTU, DIEA; settings: for crude HPLC purity: 254 nm
[2] = general procedure: Fmoc solid-phase peptide synthesis; Wang's alkoxy resin; HBTU, DIEA; settings: whole synthesis, HPLC method A, 254 nm

## Fmoc-β-Ala-Ile-Ala-Leu-Dox
[1]; conjugation step
  conjugation yield: 88%
[1]; conjugation step, HPLC method A
  crude HPLC purity: 92%

## Fmoc-β-Ala-Ile-Ala-Leu-OH
[2]
  crude HPLC purity: 92%

## PEPTIDE1{[Suc].[bAla].I.A.L.[Dox]}$$$$V2.0
[1]; late stage modification step
  step yield: 78%
[1]; late stage modification step, HPLC method B
  crude HPLC purity: 86%

For some assays here: Some peptides are written in HELM: one residue between dots, names in brackets for other building blocks, links after the first $.
